Experimental data: PMC10907721
For at least one entry, the source does not settle the construct or the ends of the probe. Where a protein sequence is shown, tags need not be part of it.

Biological target: T1, Hop1 CBR WT (Saccharomyces cerevisiae) (UniProt P20050)
T1 sequence (looked up): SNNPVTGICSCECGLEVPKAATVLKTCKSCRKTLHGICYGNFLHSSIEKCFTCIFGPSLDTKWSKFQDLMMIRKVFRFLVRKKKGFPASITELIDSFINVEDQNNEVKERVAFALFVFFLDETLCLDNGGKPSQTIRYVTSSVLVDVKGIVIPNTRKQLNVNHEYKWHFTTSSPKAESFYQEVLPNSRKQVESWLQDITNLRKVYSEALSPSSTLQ
Assay: EMSA
Conditions: EMSA: 20 mM Tris-HCl pH 7.5, 25 mM NaCl, 2 mM beta-mercaptoethanol, 10% glycerol; 50 nM nucleosome or DNA; 15 min room temperature; 6% TBE-acrylamide gel, 0.2X TBE, 4 C; recombinant protein; residues 322-537

Sequence: GAGGCCGCTCAATTGGTCGTAGACAGCTCTAGCACCG (double strand) [40-bp DNA from Widom 601]
- Kd: 2100 nM
